The data scatter; read single values as rough.
Test system: Sindbis virus TE/5'2J-GFP
Assay: percent infected (GFP+ in RFP+ ISG-expressing cells); higher = more infection (less antiviral activity)
Settings: experiment: primary screen (single well)

Sequence | percent infected (BHK/HA-Zeo (control)) [%] | percent infected (BHK/NZAP-Zeo (ZAP)) [%]
MNPAAEAEFNILLATDSYKVTHYKQYPPNTSKVYSYFECREKKTENSKLRKVKYEETVFYGLQYILNKYLKGKVVTKEKIQEAKDVYKEHFQDDVFNEKGWNYILEKYDGHLPIEIKAVPEGFVIPRGNVLFTVENTDPECYWLTNWIETILVQSWYPITVATNSREQKKILAKYLLETSGNLDGLEYKLHDFGYRGVSSQETAGIGASAHLVNFKGTDTVAGLALIKKYYGTKDPVPGYSVPAAEHSTITAWGKDHEKDAFEHIVTQFSSVPVSVVSDSYDIYNACEKIWGEDLRHLIVSRSTQAPLIIRPDSGNPLDTVLKVLEILGKKFPVTENSKGYKLLPPYLRVIQGDGVDINTLQEIVEGMKQKMWSIENIAFGSGGGLLQKLTRDLLNCSFKCSYVVTNGLGINVFKDPVADPNKRSKKGRLSLHRTPAGNFVTLEEGKGDLEEYGQDLLHTVFKNGKVTKSYSFDEIRKNAQLNIELEAAHH [PBEF1] | 93.9 | 
MNPESSIFIEDYLKYFQDQVSRENLLQLLTDDEAWNGFVAAAELPRDEADELRKALNKLASHMVMKDKNRHDKDQQHRQWFLKEFPRLKRELEDHIRKLRALAEEVEQVHRGTTIANVVSNSVGTTSGILTLLGLGLAPFTEGISFVLLDTGMGLGAAAAVAGITCSVVELVNKLRARAQARNLDQSGTNVAKVMKEFVGGNTPNVLTLVDNWYQVTQGIGRNIRAIRRARANPQLGAYAPPPHVIGRISAEGGEQVERVVEGPAQAMSRGTMIVGAATGGILLLLDVVSLAYESKHLLEGAKSESAEELKKRAQELEGKLNFLTKIHEMLQPGQDQ [APOL2] | 98.5 | 95.9
MNSSKSSETQCTERGCFSSQMFLWTVAGIPILFLSACFITRCVVTFRIFQTCDEKKFQLPENFTELSCYNYGSGSVKNCCPLNWEYFQSSCYFFSTDTISWALSLKNCSAMGAHLVVINSQEEQEFLSYKKPKMREFFIGLSDQVVEGQWQWVDGTPLTKSLSFWDVGEPNNIATLEDCATMRDSSNPRQNWNDVTCFLNYFRICEMVGINPLNKGKSL [CLEC4E] |  | 96.4
MNTDLAAGKMASAACSMDPIDSFELLDLLFDRQDGILRHVELGEGWGHVKDQQVLPNPDSDDFLSSILGSGDSLPSSPLWSPEGSDSGISEDLPSDPQDTPPRSGPATSPAGCHPAQPGKGPCLSYHPGNSCSTTTPGPVIQVPEASVTIDLEMWSPGGRICAEKPADPVDLSPRCNLTVKDLLLSGSSGDLQQHHLGASYLLRPGAGHCQELVLTEDEKKLLAKEGITLPTQLPLTKYEERVLKKIRRKIRNKQSAQESRKKKKEYIDGLETRMSACTAQNQELQRKVLHLEKQNLSLLEQLKKLQAIVVQSTSKSAQTGTCVAVLLLSFALIILPSISPFGPNKTESPGDFAPVRVFSRTLHNDAASRVAADAVPGSEAPGPRPEADTTREESPGSPGADWGFQDTANLTNSTEELDNATLVLRNATEGLGQVALLDWVAPGPSTGSGRAGLEAAGDEL [CREB3L3] |  | 96.4
MNTIVFNKLSGAVLFEDGGASERERGGRPYSGVLDSPHARPEVGIPDGPPLKDNLGLRHRRTGARQNGGKVRHKRQALQDMARPLKQWLYKHRDNPYPTKTEKILLALGSQMTLVQVSNWFANARRRLKNTVRQPDLSWALRIKLYNKYVQGNAERLSVSSDDSCSEDGENPPRTHMNEGGYNTPVHHPVIKSENSVIKAGVRPESRASEDYVAPPKYKSSLLNRYLNDSLRHVMATNTTMMGKTRQRNHSGSFSSNEFEEELVSPSSSETEGNFVYRTDTLENGSNKGESAANRKGPSKDDTYWKEINAAMALTNLAQGKDKLQGTTSCIIQKSSHIAEVKTVKVPLVQQF [MKX] | 69.4 | 55.2
MNTRNRVVNSGLGASPASRPTRDPQDPSGRQGELSPVEDQREGLEAAPKGPSRESVVHAGQRRTSAYTLIAPNINRRNEIQRIAEQELANLEKWKEQNRAKPVHLVPRRLGGSQSETEVRQKQQLQLMQSKYKQKLKREESVRIKKEAEEAELQKMKAIQREKSNKLEEKKRLQENLRREAFREHQQYKTAEFLSKLNTESPDRSACQSAVCGPQSSTWKLPILPRDHSWARSWAYRDSLKAEENRKLQKMKDEQHQKSELLELKRQQQEQERAKIHQTEHRRVNNAFLDRLQGKSQPGGLEQSGGCWNMNSGNSWGI [EPSTI1] | 95.2 | 79.2
MNTSIPYQQNPYNPRGSSNVIQCYRCGDTCKGEVVRVHNNHFHIRCFTCQVCGCGLAQSGFFFKNQEYICTQDYQQLYGTRCDSCRDFITGEVISALGRTYHPKCFVCSLCRKPFPIGDKVTFSGKECVCQTCSQSMASSKPIKIRGPSHCAGCKEEIKHGQSLLALDKQWHVSCFKCQTCSVILTGEYISKDGVPYCESDYHAQFGIKCETCDRYISGRVLEAGGKHYHPTCARCVRCHQMFTEGEEMYLTGSEVWHPICKQAARAEKKLKHRRTSETSISPPGSSIGSPNRVICAKVDNEILNYKDLAALPKVKSIYEVQRPDLISYEPHSRYMSDEMLERCGYGESLGTLSPYSQDIYENLDLRQRRASSPGYIDSPTYSRQGMSPTFSRSPHHYYRSGPESGRSSPYHSQLDVRSSTPTSYQAPKHFHIPAGDSNIYRKPPIYKRHGDLSTATKSKTSEDISQTSKYSPIYSPDPYYASESEYWTYHGSPKVPRARRFSSGGEEDDFDRSMHKLQSGIGRLILKEEMKARSSSYADPWTPPRSSTSSREALHTAGYEMSLNGSPRSHYLADSDPLISKSASLPAYRRNGLHRTPSADLFHYDSMNAVNWGMREYKIYPYELLLVTTRGRNRLPKDVDRTRLERHLSQEEFYQVFGMTISEFDRLALWKRNELKKQARLF [ABLIM3] |  | 98.4
MPAPRAREQPRVPGERQPLLPRGARGPRRWRRAAGAAVLLVEMLERAAFFGVTANLVLYLNSTNFNWTGEQATRAALVFLGASYLLAPVGGWLADVYLGRYRAVALSLLLYLAASGLLPATAFPDGRSSFCGEMPASPLGPACPSAGCPRSSPSPYCAPVLYAGLLLLGLAASSVRSNLTSFGADQVMDLGRDATRRFFNWFYWSINLGAVLSLLVVAFIQQNISFLLGYSIPVGCVGLAFFIFLFATPVFITKPPMGSQVSSMLKLALQNCCPQLWQRHSARDRQCARVLADERSPQPGASPQEDIANFQVLVKILPVMVTLVPYWMVYFQMQSTYVLQGLHLHIPNIFPANPANISVALRAQGSSYTIPEAWLLLANVVVVLILVPLKDRLIDPLLLRCKLLPSALQKMALGMFFGFTSVIVAGVLEMERLHYIHHNETVSQQIGEVLYNAAPLSIWWQIPQYLLIGISEIFASIPGLEFAYSEAPRSMQGAIMGIFFCLSGVGSLLGSSLVALLSLPGGWLHCPKDFGNINNCRMDLYFFLLAGIQAVTALLFVWIAGRYERASQGPASHSRFSRDRG [SLC15A3] | 94.6 | 94.6
MPGKKARKNAQPSPARAPAELEVECATQLRRFGDKLNFRQKLLNLISKLFCSGT [PMAIP1] | 89.5 | 76.2
MPITRMRMRPWLEMQINSNQIPGLIWINKEEMIFQIPWKHAAKHGWDINKDACLFRSWAIHTGRYKAGEKEPDPKTWKANFRCAMNSLPDIEEVKDQSRNKGSSAVRVYRMLPPLTKNQRKERKSKSSRDAKSKAKRKSCGDSSPDTFSDGLSSSTLPDDHSSYTVPGYMQDLEVEQALTPALSPCAVSSTLPDWHIPVEVVPDSTSDLYNFQVSPMPSTSEATTDEDEEGKLPEDIMKLLEQSEWQPTNVDGKGYLLNEPGVQPTSVYGDFSCKEEPEIDSPGGDIGLSLQRVFTDLKNMDATWLDSLLTPVRLPSIQAIPCAP [IRF1] | 4.35 | 2.49
MPLELTQSRVQKIWVPVDHRPSLPRSCGPKLTNSPTVIVMVGLPARGKTYISKKLTRYLNWIGVPTKVFNVGEYRREAVKQYSSYNFFRPDNEEAMKVRKQCALAALRDVKSYLAKEGGQIAVFDATNTTRERRHMILHFAKENDFKAFFIESVCDDPTVVASNIMEVKISSPDYKDCNSAEAMDDFMKRISCYEASYQPLDPDKCDRDLSLIKVIDVGRRFLVNRVQDHIQSRIVYYLMNIHVQPRTIYLCRHGENEHNLQGRIGGDSGLSSRGKKFASALSKFVEEQNLKDLRVWTSQLKSTIQTAEALRLPYEQWKALNEIDAGVCEELTYEEIRDTYPEEYALREQDKYYYRYPTGESYQDLVQRLEPVIMELERQENVLVICHQAVLRCLLAYFLDKSAEEMPYLKCPLHTVLKLTPVAYGCRVESIYLNVESVCTHRERSEDAKKGPNPLMRRNSVTPLASPEPTKKPRINSFEEHVASTSAALPSCLPPEVPTQLPGQNMKGSRSSADSSRKH [PFKFB3] | 94.4 | 
MPNSEPASLLELFNSIATQGELVRSLKAGNASKDEIDSAVKMLVSLKMSYKAAAGEDYKADCPPGNPAPTSNHGPDATEAEEDFVDPWTVQTSSAKGIDYDKLIVRFGSSKIDKELINRIERATGQRPHHFLRRGIFFSHRDMNQVLDAYENKKPFYLYTGRGPSSEAMHVGHLIPFIFTKWLQDVFNVPLVIQMTDDEKYLWKDLTLDQAYSYAVENAKDIIACGFDINKTFIFSDLDYMGMSSGFYKNVVKIQKHVTFNQVKGIFGFTDSDCIGKISFPAIQAAPSFSNSFPQIFRDRTDIQCLIPCAIDQDPYFRMTRDVAPRIGYPKPALLHSTFFPALQGAQTKMSASDPNSSIFLTDTAKQIKTKVNKHAFSGGRDTIEEHRQFGGNCDVDVSFMYLTFFLEDDDKLEQIRKDYTSGAMLTGELKKALIEVLQPLIAEHQARRKEVTDEIVKEFMTPRKLSFDFQ [WARS] | 98.1 | 93.2
MPPAVGGPVGYTPPDGGWGWAVVIGAFISIGFSYAFPKSITVFFKEIEGIFHATTSEVSWISSIMLAVMYGGGPISSILVNKYGSRIVMIVGGCLSGCGLIAASFCNTVQQLYVCIGVIGGLGLAFNLNPALTMIGKYFYKRRPLANGLAMAGSPVFLCTLAPLNQVFFGIFGWRGSFLILGGLLLNCCVAGALMRPIGPKPTKAGKDKSKASLEKAGKSGVKKDLHDANTDLIGRHPKQEKRSVFQTINQFLDLTLFTHRGFLLYLSGNVIMFFGLFAPLVFLSSYGKSQHYSSEKSAFLLSILAFVDMVARPSMGLVANTKPIRPRIQYFFAASVVANGVCHMLAPLSTTYVGFCVYAGFFGFAFGWLSSVLFETLMDLVGPQRFSSAVGLVTIVECCPVLLGPPLLGRLNDMYGDYKYTYWACGVVLIISGIYLFIGMGINYRLLAKEQKANEQKKESKEEETSIDVAGKPNEVTKAAESPDQKDTDGGPKEEESPV [SLC16A1] | 98.8 | 98.4
MPQTPPFSAMFDSSGYNRNLYQSAEDSCGGLYYHDNNLLSGSLEALIQHLVPNVDYYPDRTYIFTFLLSSRLFMHPYELMAKVCHLCVEHQRLSDPDSDKNQMRKIAPKILQLLTEWTETFPYDFRDERMMRNLKDLAHRIASGEEQTYRKNVQQMMQCLIRKLAALSQYEEVLAKISSTSTDRLTVLKTKPQSIQRDIITVCNDPYTLAQQLTHIELERLNYIGPEEFVQAFVQKDPLDNDKSCYSERKKTRNLEAYVEWFNRLSYLVATEICMPVKKKHRARMIEYFIDVARECFNIGNFNSLMAIISGMNMSPVSRLKKTWAKVKTAKFDILEHQMDPSSNFYNYRTALRGAAQRSLTAHSSREKIVIPFFSLLIKDIYFLNEGCANRLPNGHVNFEKFWELAKQVSEFMTWKQVECPFERDRKILQYLLTVPVFSEDALYLASYESEGPENHIEKDRWKSLRSSLLGRV [RASGEF1B] | 97.2 | 93.7
